Data taken from publication PMC13138344, “Embryonic stem cell factors DPPA2/4 amplify active H3K4me3–H2AK119ub chromatin domains in non-small cell lung cancer” (Genes & Development, 2026).
Where two headings read alike, the source gives them in different places. No constants are given. Whether binding was seen depends on the method and setting. In cells and extracts the contact can be indirect. Here binding means that the protein was enriched with, or labelled near, the bait; the list need not be complete. Each block holds one molecule with its values, some of them ahead of it.

The chains behind the UniProt entries cited, without tags or fusion partners.
UniProt Q9Y483: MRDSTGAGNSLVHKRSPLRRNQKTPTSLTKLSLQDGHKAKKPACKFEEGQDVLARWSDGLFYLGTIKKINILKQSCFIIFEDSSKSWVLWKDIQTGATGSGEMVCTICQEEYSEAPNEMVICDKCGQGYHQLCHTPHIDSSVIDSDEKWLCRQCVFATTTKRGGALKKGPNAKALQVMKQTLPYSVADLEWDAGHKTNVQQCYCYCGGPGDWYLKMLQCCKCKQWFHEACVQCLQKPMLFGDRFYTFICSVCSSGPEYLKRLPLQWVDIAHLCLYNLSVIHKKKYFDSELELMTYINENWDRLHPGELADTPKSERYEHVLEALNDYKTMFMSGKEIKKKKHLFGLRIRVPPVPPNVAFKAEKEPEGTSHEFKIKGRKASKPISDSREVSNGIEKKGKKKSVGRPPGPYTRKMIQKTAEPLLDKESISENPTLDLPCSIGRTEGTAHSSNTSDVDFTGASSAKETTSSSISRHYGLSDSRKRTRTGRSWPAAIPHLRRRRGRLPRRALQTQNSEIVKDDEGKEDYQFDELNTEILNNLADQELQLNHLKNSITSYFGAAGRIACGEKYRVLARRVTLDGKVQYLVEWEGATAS
UniProt Q9HC52: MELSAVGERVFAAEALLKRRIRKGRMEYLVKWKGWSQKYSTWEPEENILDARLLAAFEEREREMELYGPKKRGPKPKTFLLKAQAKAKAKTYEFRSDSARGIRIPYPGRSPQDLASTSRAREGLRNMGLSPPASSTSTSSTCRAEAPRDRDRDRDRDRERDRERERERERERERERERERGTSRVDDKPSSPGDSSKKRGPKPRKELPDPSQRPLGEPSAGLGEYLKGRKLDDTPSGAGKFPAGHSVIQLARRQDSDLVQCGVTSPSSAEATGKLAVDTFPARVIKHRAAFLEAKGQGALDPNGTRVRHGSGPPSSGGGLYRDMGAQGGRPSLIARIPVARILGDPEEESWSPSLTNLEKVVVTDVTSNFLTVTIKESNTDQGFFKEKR

What was measured:
[1] = target: T1, developmental pluripotency-associated 2 (DPPA2) (human (endogenous in NCI-H661)) (UniProt Q7Z7J5); test: affinity purification with mass spectrometry; IP of endogenous DPPA2 or DPPA4 from NCI-H661 whole-cell lysates, species-matched IgG IP control, label-free quantitation, n = 4 per condition
T1 sequence: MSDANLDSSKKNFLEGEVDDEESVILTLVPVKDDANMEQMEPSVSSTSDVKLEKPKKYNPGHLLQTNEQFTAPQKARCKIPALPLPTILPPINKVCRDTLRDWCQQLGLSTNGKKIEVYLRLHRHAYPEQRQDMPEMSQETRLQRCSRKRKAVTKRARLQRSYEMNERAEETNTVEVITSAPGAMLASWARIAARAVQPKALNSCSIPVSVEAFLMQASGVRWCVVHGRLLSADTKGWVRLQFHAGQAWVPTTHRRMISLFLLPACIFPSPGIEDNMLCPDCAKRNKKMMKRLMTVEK

[2] = target: T2, developmental pluripotency-associated 4 (DPPA4) (human (endogenous in NCI-H661)) (UniProt Q7L190); test: affinity purification with mass spectrometry; RIME: chromatin double-cross-linked before immunoprecipitation with DPPA2/4 antibodies or isotype-matched IgG controls; wild-type NCI-H661 clones (n = 2), CRISPR double-knockout clones (n = 2) as negative controls
T2 sequence: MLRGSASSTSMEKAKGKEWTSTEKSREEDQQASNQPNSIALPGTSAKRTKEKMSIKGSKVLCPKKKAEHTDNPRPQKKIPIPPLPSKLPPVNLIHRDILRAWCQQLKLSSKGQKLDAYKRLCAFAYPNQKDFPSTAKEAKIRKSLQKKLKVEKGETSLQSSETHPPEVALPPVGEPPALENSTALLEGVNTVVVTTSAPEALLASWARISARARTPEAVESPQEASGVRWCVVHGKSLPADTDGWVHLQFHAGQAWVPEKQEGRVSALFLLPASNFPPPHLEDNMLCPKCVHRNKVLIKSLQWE

[3] = target: T1, developmental pluripotency-associated 2 (DPPA2) (human (endogenous in NCI-H661)); test: affinity purification with mass spectrometry; IP of endogenous DPPA2 or DPPA4 from NCI-H661 whole-cell lysates, species-matched IgG IP control, label-free quantitation, n = 4 per condition; remark: listed apart in the source
[4] = target: T2, developmental pluripotency-associated 4 (DPPA4) (human (endogenous in NCI-H661)); test: as above

binding [3]: binds
B1: developmental pluripotency-associated 4 (DPPA4) (natural protein, human (endogenous in NCI-H661), UniProt Q7L190 1-304, looked up)
chain: T2 sequence
notes: DPPA4, human, endogenous in NCI-H661 non-small cell lung cancer cells; source: endogenous, NCI-H661 whole-cell lysate (IP-MS); endogenous, NCI-H661 double-cross-linked chromatin (RIME)

binding [3]: binds
B3: lysine demethylase KDM2A (protein, UniProt Q9Y2K7 1-1162)
chain: MEPEEERIRYSQRLRGTMRRRYEDDGISDDEIEGKRTFDLEEKLHTNKYNANFVTFMEGKDFNVEYIQRGGLRDPLIFKNSDGLGIKMPDPDFTVNDVKMCVGSRRMVDVMDVNTQKGIEMTMAQWTRYYETPEEEREKLYNVISLEFSHTRLENMVQRPSTVDFIDWVDNMWPRHLKESQTESTNAILEMQYPKVQKYCLMSVRGCYTDFHVDFGGTSVWYHIHQGGKVFWLIPPTAHNLELYENWLLSGKQGDIFLGDRVSDCQRIELKQGYTFVIPSGWIHAVYTPTDTLVFGGNFLHSFNIPMQLKIYNIEDRTRVPNKFRYPFYYEMCWYVLERYVYCITNRSHLTKEFQKESLSMDLELNGLESGNGDEEAVDREPRRLSSRRSVLTSPVANGVNLDYDGLGKTCRSLPSLKKTLAGDSSSDCSRGSHNGQVWDPQCAPRKDRQVHLTHFELEGLRCLVDKLESLPLHKKCVPTGIEDEDALIADVKILLEELANSDPKLALTGVPIVQWPKRDKLKFPTRPKVRVPTIPITKPHTMKPAPRLTPVRPAAASPIVSGARRRRVRCRKCKACVQGECGVCHYCRDMKKFGGPGRMKQSCVLRQCLAPRLPHSVTCSLCGEVDQNEETQDFEKKLMECCICNEIVHPGCLQMDGEGLLNEELPNCWECPKCYQEDSSEKAQKRKMEESDEEAVQAKVLRPLRSCDEPLTPPPHSPTSMLQLIHDPVSPRGMVTRSSPGAGPSDHHSASRDERFKRRQLLRLQATERTMVREKENNPSGKKELSEVEKAKIRGSYLTVTLQRPTKELHGTSIVPKLQAITASSANLRHSPRVLVQHCPARTPQRGDEEGLGGEEEEEEEEEEEDDSAEEGGAARLNGRGSWAQDGDESWMQREVWMSVFRYLSRRELCECMRVCKTWYKWCCDKRLWTKIDLSRCKAIVPQALSGIIKRQPVSLDLSWTNISKKQLTWLVNRLPGLKDLLLAGCSWSAVSALSTSSCPLLRTLDLRWAVGIKDPQIRDLLTPPADKPGQDNRSKLRNMTDFRLAGLDITDATLRLIIRHMPLLSRLDLSHCSHLTDQSSNLLTAVGSSTRYSLTELNMAGCNKLTDQTLIYLRRIANVTLIDLRGCKQITRKACEHFISDLSINSLYCLSDEKLIQKIS

The next lines start with the molecule.

Molecule: MTF2 from the Polycomb repressive complex 2 (from UniProt Q9Y483 1-593)
binding [1]: binds

Molecule: CBX8 (a component of the canonical PRC1 complex) (from UniProt Q9HC52 1-389)
binding [2]: binds

B2: recombinant DPPA2-Myc/FLAG protein (natural protein, human, UniProt Q7Z7J5 1-298, looked up)
chain: T1 sequence
notes: DPPA2, human, recombinant; The construct is named only in the EMSA legend; source: recombinant
binding [4]: binds
